From the supplement of paper PMC8728848
Some of the results follow.

Legend:
Test in all cases: glycan array binding signal (z-score within array); higher = stronger binding
Conditions in all cases: glycan notation: IUPAC condensed, linker removed
[1] = target: GlcNAc(b1-4)GlcNAc(b1-4)GlcNAc(b1-4)GlcNAc(b1-4)GlcNAc(b1-4)GlcNAc
Outline: (§1)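 Glycan array data came from 3228 arrays in the Consortium for Functional Glycomics database, and only arrays with an available protein sequence were kept. Glycan names were put into IUPAC-condensed notation, and columns mapping to the same glycan were averaged. The binding signal is a within-array Z-score, averaged across arrays of one protein sequence run at different concentrations or buffers and across linkers. A negative Z-score can be read as non-binding.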

[2] = target: GlcNAc(b1-4)[GlcNAc(b1-6)]GalNAc
Outline: as §1

[3] = target: GlcNAc(b1-6)Gal(b1-4)GlcNAc
Outline: as §1

GlcNAc(b1-6)GalNAc = target: GlcNAc(b1-6)GalNAc
Outline: as §1

[4] = target: GlcNAc6S(b1-3)Gal(b1-4)GlcNAc
Outline: as §1

Kdn(a2-3)Gal(b1-3)GalNAc = target: Kdn(a2-3)Gal(b1-3)GalNAc
Outline: as §1

Kdn(a2-3)Gal(b1-3)GlcNAc = target: Kdn(a2-3)Gal(b1-3)GlcNAc
Outline: as §1

Kdn(a2-3)Gal(b1-4)Glc = target: Kdn(a2-3)Gal(b1-4)Glc
Outline: as §1

Kdn(a2-3)Gal(b1-4)GlcNAc = target: Kdn(a2-3)Gal(b1-4)GlcNAc
Outline: as §1

[5] = target: Kdn(a2-3)Gal(b1-4)[Fuc(a1-3)]GlcNAc
Outline: as §1

Kdn(a2-6)Gal(b1-4)GlcNAc = target: Kdn(a2-6)Gal(b1-4)GlcNAc
Outline: as §1

[6] = target: Man(a1-2)Man(a1-2)Man(a1-3)Man
Outline: as §1

[7] = target: Man(a1-2)Man(a1-2)Man(a1-6)[Man(a1-3)]Man
Outline: as §1

Man(a1-2)Man(a1-3)Man = target: Man(a1-2)Man(a1-3)Man
Outline: as §1

[8] = target: Man(a1-2)Man(a1-3)[Man(a1-2)Man(a1-6)]Man
Outline: as §1

[9] = target: Man(a1-2)Man(a1-3)[Man(a1-2)Man(a1-6)]Man(a1-6)[Man(a1-2)Man(a1-2)Man(a1-3)]Man
Outline: as §1

[10] = target: Man(a1-2)Man(a1-3)[Man(a1-2)Man(a1-6)]Man(a1-6)[Man(a1-2)Man(a1-2)Man(a1-3)]Man(b1-4)GlcNAc(b1-4)GlcNAc
Outline: as §1

[11] = target: Man(a1-2)Man(a1-3)[Man(a1-6)]Man(a1-6)[Man(a1-2)Man(a1-3)]Man(b1-4)GlcNAc(b1-4)GlcNAc
Outline: as §1

[12] = target: Man(a1-2)Man(a1-6)[Man(a1-3)]Man(a1-6)[Man(a1-2)Man(a1-2)Man(a1-3)]Man
Outline: as §1

[13] = target: Man(a1-2)Man(a1-6)[Man(a1-3)]Man(a1-6)[Man(a1-2)Man(a1-2)Man(a1-3)]Man(b1-4)GlcNAc(b1-4)GlcNAc
Outline: as §1

Man(a1-3)[Man(a1-6)]Man = target: Man(a1-3)[Man(a1-6)]Man
Outline: as §1

[14] = target: Man(a1-3)[Man(a1-6)]Man(a1-6)[Man(a1-2)Man(a1-3)]Man(b1-4)GlcNAc(b1-4)GlcNAc
Outline: as §1

[15] = target: Man(a1-3)[Man(a1-6)]Man(a1-6)[Man(a1-3)]Man
Outline: as §1

[16] = target: Man(a1-3)[Man(a1-6)]Man(a1-6)[Man(a1-3)]Man(b1-4)GlcNAc(b1-4)GlcNAc
Outline: as §1

[17] = target: Man(a1-3)[Man(a1-6)]Man(b1-4)GlcNAc(b1-4)GlcNAc
Outline: as §1

[18] = target: Man(a1-3)[Man(a1-6)]Man(b1-4)GlcNAc(b1-4)[Fuc(a1-6)]GlcNAc
Outline: as §1

Man(a1-6)Man = target: Man(a1-6)Man
Outline: as §1

Man(b1-4)GlcNAc = target: Man(b1-4)GlcNAc
Outline: as §1

MurNAc(b1-4)GlcNAc = target: MurNAc(b1-4)GlcNAc
Outline: as §1

Neu5Ac(a2-3)Gal = target: Neu5Ac(a2-3)Gal
Outline: as §1

[19] = target: Neu5Ac(a2-3)Gal(b1-3)GalNAc
Outline: as §1

[20] = target: Neu5Ac(a2-3)Gal(b1-3)GalNAc(b1-3)Gal(a1-4)Gal(b1-4)Glc
Outline: as §1

[21] = target: Neu5Ac(a2-3)Gal(b1-3)GalNAc(b1-4)[Neu5Ac(a2-3)]Gal(b1-4)Glc
Outline: as §1

[22] = target: Neu5Ac(a2-3)Gal(b1-3)GalNAc(b1-4)[Neu5Ac(a2-8)Neu5Ac(a2-3)]Gal(b1-4)Glc
Outline: as §1

[23] = target: Neu5Ac(a2-3)Gal(b1-3)GalNAc6S
Outline: as §1

[24] = target: Neu5Ac(a2-3)Gal(b1-3)GlcNAc
Outline: as §1

[25] = target: Neu5Ac(a2-3)Gal(b1-3)GlcNAc(b1-2)Man
Outline: as §1

[26] = target: Neu5Ac(a2-3)Gal(b1-3)GlcNAc(b1-2)Man(a1-3)[GlcNAc(b1-4)][Neu5Ac(a2-3)Gal(b1-3)GlcNAc(b1-2)Man(a1-6)]Man(b1-4)GlcNAc(b1-4)GlcNAc
Outline: as §1

[27] = target: Neu5Ac(a2-3)Gal(b1-3)GlcNAc(b1-2)Man(a1-3)[Neu5Ac(a2-3)Gal(b1-3)GlcNAc(b1-2)Man(a1-6)]Man(b1-4)GlcNAc(b1-4)GlcNAc
Outline: as §1

[28] = target: Neu5Ac(a2-3)Gal(b1-3)GlcNAc(b1-2)[Neu5Ac(a2-3)Gal(b1-3)GlcNAc(b1-4)]Man(a1-6)[Neu5Ac(a2-3)Gal(b1-3)GlcNAc(b1-2)Man(a1-3)]Man(b1-4)GlcNAc(b1-4)GlcNAc
Outline: as §1

[29] = target: Neu5Ac(a2-3)Gal(b1-3)GlcNAc(b1-3)Gal(b1-3)GlcNAc
Outline: as §1

[30] = target: Neu5Ac(a2-3)Gal(b1-3)GlcNAc(b1-3)Gal(b1-4)GlcNAc
Outline: as §1

[31] = target: Neu5Ac(a2-3)Gal(b1-3)GlcNAc(b1-3)GalNAc
Outline: as §1

[32] = target: Neu5Ac(a2-3)Gal(b1-3)GlcNAc(b1-4)Gal(b1-4)Glc
Outline: as §1

[33] = target: Neu5Ac(a2-3)Gal(b1-3)GlcNAc(b1-6)GalNAc
Outline: as §1

B1: Aap arpt (Staphylococcus epidermidis) (protein)
chain: NNEAPQMSSTLQAEEGSNAEAPQSEPTKAEEGGNAEAAQSEPTKAEEGGNAEAPQSEPTKAEEGGNAEAAQSEPTKTEEGSNVKAAQSEPTKAEEGSNAEAPQSEPTKTEEGSNAKAAQSEPTKAEEGGNAEAAQSEPTKTEEGSNAEAPQSEPTKAEEGGYAEAPQSEPTKTEEGGNAEAPNVPTIKA
Q: What does the source list for B1?
A: glycan array binding signal (z-score) [1]: -0.669; glycan array binding signal (z-score) [2]: -0.748; glycan array binding signal (z-score) [3]: -0.338; glycan array binding signal (z-score) (GlcNAc(b1-6)GalNAc): 3.2; glycan array binding signal (z-score) [4]: 0.192; glycan array binding signal (z-score) (Kdn(a2-3)Gal(b1-3)GalNAc): -0.439; glycan array binding signal (z-score) (Kdn(a2-3)Gal(b1-3)GlcNAc): 0.097; glycan array binding signal (z-score) (Kdn(a2-3)Gal(b1-4)Glc): 1.18; glycan array binding signal (z-score) (Kdn(a2-3)Gal(b1-4)GlcNAc): 0.093; glycan array binding signal (z-score) [5]: 0.815; glycan array binding signal (z-score) (Kdn(a2-6)Gal(b1-4)GlcNAc): 2.33; glycan array binding signal (z-score) [6]: -1.07; glycan array binding signal (z-score) [7]: -0.012; glycan array binding signal (z-score) (Man(a1-2)Man(a1-3)Man): -1.35; glycan array binding signal (z-score) [8]: -1; glycan array binding signal (z-score) [9]: 0.419; glycan array binding signal (z-score) [10]: -0.725; glycan array binding signal (z-score) [11]: -1.42; glycan array binding signal (z-score) [12]: -2.21; glycan array binding signal (z-score) [13]: -0.732; glycan array binding signal (z-score) (Man(a1-3)[Man(a1-6)]Man): -0.199; glycan array binding signal (z-score) [14]: 0.056; glycan array binding signal (z-score) [15]: -2.02; glycan array binding signal (z-score) [16]: 0.688; glycan array binding signal (z-score) [17]: -0.21; glycan array binding signal (z-score) [18]: 1.13; glycan array binding signal (z-score) (Man(a1-6)Man): -0.965; glycan array binding signal (z-score) (Man(b1-4)GlcNAc): -0.455; glycan array binding signal (z-score) (MurNAc(b1-4)GlcNAc): -1.3; glycan array binding signal (z-score) (Neu5Ac(a2-3)Gal): -1.51; glycan array binding signal (z-score) [19]: 0.205; glycan array binding signal (z-score) [20]: 1.83; glycan array binding signal (z-score) [21]: -1.39; glycan array binding signal (z-score) [22]: -0.185; glycan array binding signal (z-score) [23]: 0.46; glycan array binding signal (z-score) [24]: -0.693; glycan array binding signal (z-score) [25]: -0.298; glycan array binding signal (z-score) [26]: 0.868; glycan array binding signal (z-score) [27]: -0.979; glycan array binding signal (z-score) [28]: -0.309; glycan array binding signal (z-score) [29]: -0.914; glycan array binding signal (z-score) [30]: -0.171; glycan array binding signal (z-score) [31]: 0.983; glycan array binding signal (z-score) [32]: -1.29; glycan array binding signal (z-score) [33]: 0.52
